No constants are given. Whether binding was seen depends on the method and setting. Some binding calls cover weakened binding; strength is not graded here. For some of these results: Tags and fused reporters may be left off the sequences shown. Each block holds one binder with its values, some of them ahead of it.
Tests used:
[1] = biological target: LFA-1 (human) (UniProt P20701); experiment: summary
[2] = biological target: LFA-1 (human) (UniProt P20701); experiment: summary of anti-LFA-1 staining of PBMCs and of the CD25 ELISA
[3] = biological target: T1, His-tagged P3028 (PGE73) (human, also: His tag, length and end not given here); experiment: PEPSCAN ELISA: peptide on chip, His-tagged P3028 in solution
T1 construct: the tag is put first here only for want of a statement; also called His-tag-P3028; not shown: His tag
T1 peptide: VFDEFKPLVEEPQNLIK

Protein sequences, listed by entry. Tags and fused reporters are not part of them. Lines headed by an entry give the natural chain unless they say otherwise; changes in a name come on top.
UniProt P20701: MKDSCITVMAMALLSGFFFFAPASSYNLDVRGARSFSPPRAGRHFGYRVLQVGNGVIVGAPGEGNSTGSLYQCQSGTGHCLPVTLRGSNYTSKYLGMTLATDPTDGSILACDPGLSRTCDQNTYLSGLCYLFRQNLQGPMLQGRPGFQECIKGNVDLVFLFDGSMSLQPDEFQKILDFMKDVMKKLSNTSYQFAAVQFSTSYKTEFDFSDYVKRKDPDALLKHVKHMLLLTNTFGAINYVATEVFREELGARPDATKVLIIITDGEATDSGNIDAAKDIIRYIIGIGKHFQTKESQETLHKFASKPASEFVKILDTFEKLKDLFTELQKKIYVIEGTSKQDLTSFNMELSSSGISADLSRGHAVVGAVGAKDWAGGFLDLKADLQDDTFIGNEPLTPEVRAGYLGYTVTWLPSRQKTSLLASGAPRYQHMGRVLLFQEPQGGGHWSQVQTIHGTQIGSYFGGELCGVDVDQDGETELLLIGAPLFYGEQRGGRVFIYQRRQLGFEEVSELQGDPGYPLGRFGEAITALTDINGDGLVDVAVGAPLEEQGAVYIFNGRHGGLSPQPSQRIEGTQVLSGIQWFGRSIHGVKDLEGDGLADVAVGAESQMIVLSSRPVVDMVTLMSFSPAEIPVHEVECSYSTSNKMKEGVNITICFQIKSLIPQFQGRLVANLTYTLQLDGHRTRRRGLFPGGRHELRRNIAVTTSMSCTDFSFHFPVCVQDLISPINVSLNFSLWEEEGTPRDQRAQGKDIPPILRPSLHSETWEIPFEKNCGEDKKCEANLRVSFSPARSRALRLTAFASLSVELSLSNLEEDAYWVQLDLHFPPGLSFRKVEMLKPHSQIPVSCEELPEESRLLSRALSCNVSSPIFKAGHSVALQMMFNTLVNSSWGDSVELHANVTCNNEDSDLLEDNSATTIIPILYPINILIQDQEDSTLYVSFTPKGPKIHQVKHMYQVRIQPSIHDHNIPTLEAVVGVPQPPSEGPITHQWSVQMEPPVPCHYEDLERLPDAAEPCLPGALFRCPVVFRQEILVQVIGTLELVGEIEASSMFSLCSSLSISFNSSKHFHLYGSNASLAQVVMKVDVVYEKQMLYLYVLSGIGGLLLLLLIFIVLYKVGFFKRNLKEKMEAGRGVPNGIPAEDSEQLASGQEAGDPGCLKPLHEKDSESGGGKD

[4] = biological target: T1, His-tagged P3028 (PGE73); experiment: peptide at 0.5 mg/mL in solution with His-tagged P3028 on a PEPSCAN chip

- binding [1]: binds
- binding [2]: binds
Binder: VFDEFKPLVEEPQNLIK [P3028]

- binding [3]: binds
Binder: KKLDTFFVGLSLFTER [SEQ ID NO 98]

- binding [4]: binds
Binder: KKLDTFFKKLSLFTE [SCF28]

Reference: US20180177842A1 (CANIMGUIDE THERAPEUTICS, published 2018)
